Data source: PubChem BioAssay AID652243 (Drosophila RNAi Screening Center, 2013)

Purpose: 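Fly genes required for human androgen receptor driven transcription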 (primary screen)
Cell system: Drosophila S2R+ cells
Reagents: long dsRNA against Drosophila genes
Time to read-out: 72 h (48 h, then 24 h hormone)
Treatment: synthetic androgen R1881 at 10 nM for 24 h
Measured: 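Firefly light from an androgen-responsive reporter and Renilla control light per well, raw and unnormalised, for each of two replicates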
Direction: firefly reporter light: higher = more light from androgen-responsive reporter; Renilla control light: higher = more constitutive control signal (cell number, transfection)
Rule for the call: 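Hit when the log firefly-to-Renilla ratio dropped or increased by a fixed fold versus the mean of GFP or LacZ controls across duplicate plates; lowering cut given as 1.5 and as 3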
Calls: active = hit: reporter lowered or raised; inactive = no hit
The screen tested about 24,000 reagents; below is an unselected part of those that have a named target and a result. Over the whole deposit, 246 (1%) were called active. 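Plates not normalised; calls are printed but the firefly/Renilla ratio behind them is not deposited; fold cut for lowering reported inconsistently.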 The raw values are shown without normalisation. A number with no mark means an inactive call. Names joined by + are all predicted targets of the reagent. Not given: the amount of reagent.

gene,PubChem SID,"firefly reporter light, replicate 1","firefly reporter light, replicate 2","Renilla control light, replicate 1","Renilla control light, replicate 2"
Arf4 (ADP ribosylation factor 4),SID104196987,1.95e5,2.47e5,3.62e6,2.93e6
Arf4 (ADP ribosylation factor 4),SID104207840,4.88e5,4.20e5,1.30e6,9.83e5
dve (defective proventriculus),SID104184472,1.45e5,1.44e5,1.45e6,1.33e6
dve (defective proventriculus),SID104207236,4.42e5,4.32e5,1.60e6,1.77e6
Pex12 (Peroxin 12),SID104180414,82886,82670,6.72e5,6.89e5
Pex12 (Peroxin 12),SID104205693,2.35e5,2.58e5,5.58e5,5.66e5
sowah (sosondowah),SID104188978,1.52e5,77833,2.94e5,2.15e5
sowah (sosondowah),SID104189550,1.45e6,9.78e5,2.31e6,1.87e6
CG13116,SID104182006,3.11e5,3.66e5,3.24e6,3.15e6
CG13116,SID104201560,7.54e5,6.75e5,2.03e6,2.02e6
CG13116,SID104205460,2.72e5,3.47e5,3.66e5,4.52e5
CG32212 + hpRNA:CR33940,SID104189410,2.87e5,1.34e5,7.36e5,4.77e5
CG10512,SID104191407,2.11e5,2.05e5,2.05e6,1.68e6
CG10512,SID104206458,6.28e5,6.26e5,1.79e6,1.82e6
CG8326,SID104199895,96936,76446,6.44e5,6.31e5
CG8326,SID104206912,5.18e5,7.48e5,1.00e6,1.44e6
Prosbeta5R1 (Proteasome beta5 subunit-related 1),SID104184373,1.14e5,1.44e5,8.59e5,1.06e6
Prosbeta5R1 (Proteasome beta5 subunit-related 1),SID104208445,3.70e5,3.54e5,9.43e5,8.78e5
gsb (gooseberry),SID104184484,3.05e5,3.13e5,2.08e6,2.26e6
gsb (gooseberry),SID104204365,4.23e5,4.29e5,7.39e5,4.16e5
Nlg4 (Neuroligin 4),SID104194901,2.21e5,1.79e5,2.75e6,3.22e6
Nlg4 (Neuroligin 4),SID104195492,2.27e5,1.95e5,2.75e6,2.98e6
Nlg4 (Neuroligin 4),SID104201769,2.22e5,1.65e5,9.59e5,7.02e5
Nlg4 (Neuroligin 4),SID104207329,3.97e5,3.43e5,1.16e6,1.01e6
Nlg4 (Neuroligin 4),SID104208305,4.67e5,3.51e5,9.68e5,9.96e5
Nlg4 (Neuroligin 4),SID104208566,3.63e5,3.44e5,1.06e6,1.40e6
Frq2 (Frequenin 2),SID104200037,7.73e5,7.56e5,4.04e6,3.70e6
Frq2 (Frequenin 2),SID104204581,3.28e5,3.08e5,8.16e5,7.62e5
CG1785,SID104197931,1.21e5,1.16e5,7.75e5,8.99e5
CG1785,SID104208576,5.78e5,3.64e5,9.67e5,1.06e6
RpL40 (Ribosomal protein L40),SID104180574,90504,96362,5.83e5,5.77e5
Brms1 (BRMS1 transcriptional repressor),SID104199688,3.11e5,2.05e5,2.46e6,2.61e6
CG10561,SID104181860,9.71e5,8.30e5,2.31e6,1.91e6
IFT43 (Intraflagellar transport 43),SID104182684,9.71e5,7.59e5,2.35e6,2.20e6
eIF6 (eukaryotic translation initiation factor 6),SID104184466,8.69e5,1.10e6,1.47e6,1.98e6
eIF6 (eukaryotic translation initiation factor 6),SID104207612,5.21e5,5.04e5,1.42e6,1.31e6
brm (brahma),SID104191122,1.14e5,99353,7.76e5,7.27e5
brm (brahma),SID104204770,4.08e5,5.28e5,3.44e5,4.64e5
CG12439,SID104181960,2.18e5,1.54e5,1.93e6,1.29e6
GIIIspla2 (Phospholipase A2 group III),SID104197886,1.09e5,69992,8.60e5,7.05e5
GIIIspla2 (Phospholipase A2 group III),SID104205970,1.97e5,2.36e5,7.80e5,6.46e5
CG14598,SID104192333,1.02e5,1.04e5,2.69e6,1.96e6
CG14598,SID104208618,1.11e6,1.60e6,1.60e6,1.24e6
CG2930,SID104197522,1.24e5,1.02e5,8.88e5,6.20e5
CG2930,SID104204847,3.60e5,3.65e5,7.79e5,7.19e5
CG7611,SID104191632,7.82e5,8.09e5,1.59e6,1.91e6
CG42449,SID104197876,2.16e5,2.57e5,2.06e6,2.34e6
CG42449,SID104203862,1.25e6,1.11e6,1.16e6,9.57e5
CG13386,SID104182052,2.11e5,1.88e5,1.52e6,1.40e6
CG13386,SID104207284,3.18e5,4.01e5,8.93e5,1.16e6
CG14052,SID104197699,4.65e5,3.42e5,3.95e6,3.20e6
CG14052,SID104197984,4.63e5,4.89e5,4.31e6,4.23e6
CG14052,SID104203761,8.80e5,9.21e5,1.22e6,1.25e6
CG14022,SID104182144,1.15e5,1.17e5,1.41e6,1.47e6
CG14022,SID104205944,2.98e5,2.79e5,7.85e5,6.48e5
CG12729,SID104197676,1.73e5,2.93e5,1.94e6,2.08e6
CG12729,SID104205636,1.78e5,2.90e5,3.90e5,4.49e5
CG7133,SID104191590,28630,21703,3.89e5,4.02e5
